Laboratory results reported in US20240058422A1, “GLUCAGON-LIKE PEPTIDE-1 RECEPTOR ANTAGONISTS” (INDIANA UNIVERSITY RESEARCH AND TECHNOLOGY CORPORATION, priority 2022, published 2024).
Not every detail of the peptide structures is certain; ends, links or a residue may be inferred. Starred links: 1 amine or outer side, 2 acyl side, 3 side chain; linkers in the order of their positions; H or OH if unused. Residues, ends and D or L forms follow the SMILES beside them. Groups on a side chain read outwards from the residue. *: point of attachment. γGlu = O=C(O)[C@H](CCC(=O)[*:2])N[*:1]; Palmitoyl = CCCCCCCCCCCCCCCC(=O)*; AEEA = NCCOCCOCC(=O)O

Chains of the proteins cited; added tags and fusions are not shown. Residues count along the entry.
UniProt P43220, 24-463: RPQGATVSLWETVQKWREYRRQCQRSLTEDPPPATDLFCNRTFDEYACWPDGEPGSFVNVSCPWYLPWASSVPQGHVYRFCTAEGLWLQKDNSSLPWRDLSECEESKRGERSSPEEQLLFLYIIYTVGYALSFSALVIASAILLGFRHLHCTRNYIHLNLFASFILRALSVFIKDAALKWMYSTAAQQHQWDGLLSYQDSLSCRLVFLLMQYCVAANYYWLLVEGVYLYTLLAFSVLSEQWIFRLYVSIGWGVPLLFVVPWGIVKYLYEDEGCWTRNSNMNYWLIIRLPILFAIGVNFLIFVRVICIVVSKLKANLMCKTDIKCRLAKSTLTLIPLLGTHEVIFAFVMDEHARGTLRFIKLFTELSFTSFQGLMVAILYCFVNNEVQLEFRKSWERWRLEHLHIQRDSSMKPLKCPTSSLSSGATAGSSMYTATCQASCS

Target: GLP-1R (Homo sapiens, UniProt P43220)
Experiment: GLP-1 receptor-mediated cAMP induction, luciferase reporter gene antagonism assay
Format: cell-based
Parameters: host or cells: HEK 293
Details: Table 2; C16 linker variants of 9-40amide Jant4 K40[X]; antagonism of 0.05 nM GLP-1, HEK 293 cells; read-out: Biactivity IC50
Description: GLP-1 Receptor-Mediated cAMP Induction The ability of peptides to stimulate or block cAMP induction at the GLP-1 receptor was examined by a luciferase-based reporter gene assay. Cotransfection of HEK 293 cells with the human GLP-1 receptor (Open Biosystems) and a cAMPinducible (cAMPresponsive element) luciferase gene constituted the cellular construct where receptor activation could be measured. Bioassays were performed by first serum depriving the cells for 16 h in 0.25% bovine growth serum (HyClone)-supplemented Dulbecco's modified Eagle's medium (Invitrogen) and then adding serial dilutions of the peptides over the appropriate concentration ranges in 96-well poly-D-lysine-coated plates (BD Biosciences). […] Incubation continued for 5 h at 37° C., 5% CO2 and was followed by the addition of an equivalent volume (100 μL) of LucLite luminescence substrate reagent (Perkin-Elmer). MicroBeta 1450 liquid scintillation counting (Perkin-Elmer) quantified the luminescence signal in counts per second (cps) after shaking the plate at 600 rpm for 3 min. Data was plotted using Origin software (OriginLab) and the effective concentration 50 (EC50) or inhibitory concentration 50 (IC50) was determined by sigmoidal fitting. Potency was determined by comparative analysis of relative EC50 or IC50 values. […]

SMILES: CCCCCCCCCCCCCCCC(=O)N[C@@H](CCC(=O)NCCOCCOCC(=O)NCCOCCOCC(=O)N[C@@H](CCC(=O)NCCCC[C@H](NC(=O)[C@H](CO)NC(=O)[C@@H]1CCCN1C(=O)[C@@H]1CCCN1C(=O)[C@@H]1CCCN1C(=O)[C@H](C)NC(=O)CNC(=O)[C@H](CO)NC(=O)[C@H](CO)NC(=O)[C@@H]1CCCN1C(=O)CNC(=O)CNC(=O)[C@H](CCCCN)NC(=O)[C@@H](NC(=O)[C@H](CC(C)C)NC(=O)[C@H](Cc1c[nH]c2ccccc12)NC(=O)[C@H](C)NC(=O)[C@@H](NC(=O)[C@H](Cc1ccccc1)NC(=O)[C@H](CCC(=O)O)NC(=O)[C@H](CCCNC(=N)N)NC(=O)[C@@H](NC(=O)[C@H](C)NC(=O)[C@H](CCC(N)=O)NC(=O)[C@H](CCC(=O)O)NC(=O)[C@H](CCC(=O)O)NC(=O)[C@H](CC(C)C)NC(=O)[C@H](Cc1ccc(O)cc1)NC(=O)[C@H](CO)NC(=O)[C@H](CO)NC(=O)[C@@H](NC(=O)[C@@H](N)CC(=O)O)C(C)C)C(C)C)[C@@H](C)CC)C(C)C)C(N)=O)C(=O)O)C(=O)O [compound 57] (H-DVSSYLEEQAVREFIAWLVKGGPSSGAPPPSK([γGlu-AEEA-AEEA-γGlu-Palmitoyl])-NH2; N-terminus assumed)
- IC50: 9 nM

SMILES: CCCCCCCCCCCCCCCC(=O)NCCOCCOCC(=O)NCCOCCOCC(=O)N[C@@H](CCC(=O)N[C@@H](CCC(=O)NCCCC[C@H](NC(=O)[C@H](CO)NC(=O)[C@@H]1CCCN1C(=O)[C@@H]1CCCN1C(=O)[C@@H]1CCCN1C(=O)[C@H](C)NC(=O)CNC(=O)[C@H](CO)NC(=O)[C@H](CO)NC(=O)[C@@H]1CCCN1C(=O)CNC(=O)CNC(=O)[C@H](CCCCN)NC(=O)[C@@H](NC(=O)[C@H](CC(C)C)NC(=O)[C@H](Cc1c[nH]c2ccccc12)NC(=O)[C@H](C)NC(=O)[C@@H](NC(=O)[C@H](Cc1ccccc1)NC(=O)[C@H](CCC(=O)O)NC(=O)[C@H](CCCNC(=N)N)NC(=O)[C@@H](NC(=O)[C@H](C)NC(=O)[C@H](CCC(N)=O)NC(=O)[C@H](CCC(=O)O)NC(=O)[C@H](CCC(=O)O)NC(=O)[C@H](CC(C)C)NC(=O)[C@H](Cc1ccc(O)cc1)NC(=O)[C@H](CO)NC(=O)[C@H](CO)NC(=O)[C@@H](NC(=O)[C@@H](N)CC(=O)O)C(C)C)C(C)C)[C@@H](C)CC)C(C)C)C(N)=O)C(=O)O)C(=O)O [compound 61] (H-DVSSYLEEQAVREFIAWLVKGGPSSGAPPPSK([γGlu-γGlu-AEEA-AEEA-Palmitoyl])-NH2; N-terminus assumed)
- IC50: 6 nM
